According to patent publication US20250222065A1, “CYCLIC POLYPEPTIDE FOR THE TREATMENT OF PHA TYPE 1B” (priority 2015, published 2025):
At least one compound was matched to its structure with a doubt left.

Tested on: αβγV543fs-hENaC
Test: Whole cell patch clamp, HEK-293 cells expressing PHA type IB frameshift mutant αβγV543fs-hENaC
Format: cell-based, human
Conditions: HEK-293, peptide concentration 220 nM, mean ± SE, n = 5; no peptide: loss-of-function; Table 2
Procedure: The ENaC-activating properties of cyclic peptides are tested electrophysiologically in vitro using whole cell and […] patch clamp techniques Hazemi et al, 2010; Tzotzos et al, 2013; Shabbir et al, 2013). A whole call patch clamp assay is used to measure the induced amiloride-sensitive Na+ current, calculate concentration-response curves and thus estimate the potency measured as effective concentration at half maximum response (EC50), for cyclic peptides.
In addition, mutant delta ENaC subunits were also constructed by site-directed mutagenesis, containing homologous mutations to those observed in conserved positions in the other three ENaC subunits.
Point mutations were introduced into cDNA encoding alpha, beta, gamma and delta ENaC using a commercially available site-directed mutagenesis kit (QuikChange Lightning Site-Directed Mutagenesis Kit; Agilent Technologies). […]
Whole cell currents were recorded as previously described (Shabbir et al, 2013).
Data represent the mean ±S.E. unless otherwise stated; experiments were performed on three to seven batches of independently transfected cells in the HEK-293 heterologous expression system. Statistical significance between different groups was determined using an unpaired, two-tailed Student's t test using GraphPad Prism version 3.02 (GraphPad Software, San Diego). […]

In the case of `C[C@@H]1NC(=O)CNC(=O)[C@H](CCC(=O)O)NC(=O)[C@@H]2CCCN2C(=O)[C@H]([C@@H](C)O)NC(=O)[C@H](CCC(=O)O)NC(=O)[C@H](CCCNC(=N)N)NC(=O)[C@H](CCC(N)=O)NC(=O)CNC(=O)[C@@H](N)CSSC[C@@H](C(=O)O)NC(=O)[C@H](Cc2ccc(O)cc2)NC(=O)[C@H](Cc2c[nH]c3ccccc23)NC(=O)[C@@H]2CCCN2C(=O)[C@H](CCCCN)NC(=O)[C@H](C)NC(=O)[C@H](CCC(=O)O)NC1=O` [AP301], the “Inward current measured (amiloride-sensitive current)” value is reported as 143.3 ± 8.2 pA.
